Source: the supplement of paper PMC6821926, “Diaminoquinazoline MMV675968 from Pathogen Box inhibits Acinetobacter baumannii growth through targeting of dihydrofolate reductase” (Scientific Reports, 2019)
± gives the uncertainty stated by the source. Some of the results follow.

Experiments:
[1] = test system: Acinetobacter baumannii Mahidol; test: percent growth relative to DMSO-treated control; higher = less growth inhibition; details: 10 µM; 18 h
[2] = test system: Acinetobacter baumannii Naval-81; test: as above; details: 10 µM; 18 h

Row | Structure (SMILES) | percent growth [1] | percent growth [2]
1 | O=C(C1CCN(c2cc(-n3cccc3)ncn2)CC1)N1CCc2ccccc2C1 | 89.2 ± 9.9% | 91.6 ± 11%
2 | Clc1ccc(-n2cc(COc3ccnc4ccccc34)nn2)cc1 | 73 ± 20% | 96.5 ± 4.1%
3 | CC(=O)Oc1ccccc1C(=O)Nc1ncc([N+](=O)[O-])s1 | 70.9 ± 22% | 87.3 ± 8.8%
4 | COc1cccc(OC)c1C(=O)Nc1ccc(Cl)c(-c2nc3ccccc3s2)c1 | 87.3 ± 12% | 80.7 ± 53%
5 | COC(=O)c1c(NC(=O)c2c(F)c(F)c(F)c(F)c2F)sc2c1CCCCC2 | 111 ± 18% | 93.3 ± 14%
6 | Cc1[nH]c2ccccc2c1C(c1cccs1)N1CCN(C)CC1 (stereo not drawn) | 73.7 ± 49% | 120 ± 50%
7 | N#Cc1nc(-c2ccccc2F)oc1NCCc1ccccc1 | 96.8 ± 4.4% | 78.3 ± 12%
8 | CC(C)=CCC/C(C)=C\CNCCNC1C2CC3CC(C2)CC1C3 (stereo not drawn) | 64.6 ± 44% | 88 ± 17%
9 | Cc1cc(NC(=O)c2ccc(S(=O)(=O)N(Cc3ccccc3)C(C)C)cc2)no1 | 84.1 ± 3% | 94.9 ± 13%
10 | Cc1cc(C)n(-c2ccc(NC(=O)C3CCN(Cc4cnc(C)s4)CC3)cc2)n1 | 92.1 ± 5.9% | 83.7 ± 10%
11 | O=C(NCCN1CCCC1)c1cc(NCCN2CCOCC2)nc2ccc(Cl)cc12 | 95.1 ± 5.4% | 86 ± 15%
12 | CCOc1ccc(OCC(=O)Nc2cc(C)cc(C)c2)cc1 | 91 ± 9.3% | 87 ± 17%
13 | Cc1nc(-c2ccccn2)nc(NCCc2ccc(S(C)(=O)=O)cc2)c1Cl | 94.9 ± 7.6% | 80 ± 21%
14 | CC(c1cc(Cl)cc(Cl)c1)N(C)c1ncc2c(N)nc(N)nc2n1 (stereo not drawn) | 107 ± 24% | 98.7 ± 14%
15 | CNC(=O)CNc1nc(-c2ccccn2)nc2scc(-c3ccccc3)c12 | 90.2 ± 18% | 104 ± 6.9%
16 | COc1ccc(-c2cnc3ccc(N4CCCC4)nn23)cc1OC | 84.1 ± 14% | 99 ± 7.7%
17 | Nc1cccnc1Nc1ccc(Cl)cc1 | 102 ± 12% | 92.9 ± 7.5%
18 | O=C(Nc1cccc(Cl)c1)c1cnc(N2CCN(c3ccncc3)CC2)c(Cl)c1 | 95.2 ± 8.3% | 91.2 ± 6.5%
19 | CC(Oc1cccc(Cl)c1)C(=O)Nc1ccc2oc(-c3ccncc3)nc2c1 (stereo not drawn) | 106 ± 11% | 91 ± 17%
20 | Nc1ncc(Br)cc1-c1nc2cc(Cl)cnc2[nH]1 | 101 ± 3.5% | 77.2 ± 66%
21 | CC(C)NCC(=O)Nc1cccc(C(=O)Nc2cccc(C(F)(F)F)c2)c1 | 102 ± 10% | 67.9 ± 25%
22 | CC(C(=O)Nc1ccc2oc(-c3ccncc3)nc2c1)c1ccccc1 (stereo not drawn) | 86.9 ± 15% | 101 ± 8.8%

Row | Structure (SMILES) | percent growth [1] | percent growth [2]
23 | CC(C)(C)c1cc(C(=O)Nc2cccnc2)cc(C(=O)Nc2cccnc2)c1 | 99.9 ± 41% | 78.8 ± 12%
24 | CCc1ccc(C(NCc2nc(N)nc(N(C)C)n2)C(C)C)cc1 (stereo not drawn) | 110 ± 24% | 95.1 ± 20%
25 | NCCCC(N)(C(=O)O)C(F)F (stereo not drawn) | 91.6 ± 39% | 98.8 ± 32%
26 | COc1cccc2c(C)nc(N=C(N)N)nc12 | 103 ± 16% | 83.8 ± 29%
27 | CNCCC(Oc1ccc(C(F)(F)F)cc1)c1ccccc1 (stereo not drawn) | 96.4 ± 4.4% | 80.3 ± 20%
28 | COc1ccc(OC)c(NCc2ccc3nc(N)nc(N)c3c2Cl)c1 | 19.4 ± 56% | 0%
29 | CCCCS(=O)(=O)Nc1ccc2cnn(C)c2c1 | 89.8 ± 8.6% | 101 ± 14%
30 | O=C(NCCc1c[nH]c2ccccc12)c1cc2ccccc2oc1=O | 88 ± 32% | 87.5 ± 5.8%
31 | Cc1ccccc1C(=O)N1N=C(Nc2ccccc2)SC1(C)C | 97.8 ± 12% | 83.9 ± 4%
32 | c1csc(-c2cnc3sc(NCC4CCOCC4)nn23)c1 | 96 ± 15% | 86.8 ± 16%
33 | Cc1nn2c(O)c3c(nc2c1-c1ccc(F)cc1)CCCC3 | 85.1 ± 15% | 91.67 ± 0.48%
34 | Cc1cccc(-c2nc(Nc3ccncn3)c3sccc3n2)n1 | 92.4 ± 3.1% | 82.6 ± 32%
35 | FC(F)(F)c1cc(NCCc2ccccc2)nc(-c2ccccn2)n1 | 101 ± 9.4% | 89 ± 4.7%
36 | CCN(CC)C(=O)N1CCN(C)CC1 | 97 ± 7.8% | 70.4 ± 36%
37 | CC(C)(C)OC(=O)N1CCC(Cn2nc(-c3cnc4ccccc4c3)c3c(N)ncnc32)CC1 | 90 ± 19% | 93.7 ± 8.9%
38 | O=C(Nc1ccccc1-c1nc2c(C(=O)O)cccc2o1)c1ccccc1 | 87.4 ± 9% | 118 ± 34%
39 | CN(C(=O)c1cc2c(-c3cncnc3)cccc2[nH]1)c1ccccc1 | 88.4 ± 11% | 90 ± 26%
40 | CC(=O)N1CCN(c2ccc(Oc3ccc(Cl)cc3O)cc2)CC1 | 90.1 ± 9.2% | 80.1 ± 17%
41 | CN1CCN(CCCOc2ncc(Nc3ncc(-c4ccc(C(F)(F)F)c(F)c4)nc3C(N)=O)cn2)CC1 | 85.4 ± 11% | 96.4 ± 24%
42 | CO[C@H]1/C=C/O[C@@]2(C)Oc3c(C)c(O)c4c(O)c(/c(=C/NN5CCN(C)CC5)c(O)c4c3C2=O)=N\C(=O)/C(C)=C\C=C/[C@H](C)[C@H](O)[C@@H](C)[C@@H](O)[C@@H](C)[C@H](OC(C)=O)[C@@H]1C | 0.172 ± 0.67% | 0%
43 | NCC(c1cccs1)S(=O)(=O)c1ccccc1 (stereo not drawn) | 100 ± 11% | 78.6 ± 11%
44 | CCc1cc(=O)n(C)c(SC(C)C(=O)Nc2ccc(F)cc2)n1 (stereo not drawn) | 98 ± 6.2% | 99.5 ± 11%

A second format for 2 compounds above.
Row	Structure (SMILES)	percent growth [1]	percent growth [2]
26	COc1cccc2c(C)nc(N=C(N)N)nc12	103 ± 16%	83.8 ± 29%
27	CNCCC(Oc1ccc(C(F)(F)F)cc1)c1ccccc1 (stereo not drawn)	96.4 ± 4.4%	80.3 ± 20%
